# Measured values from PubChem BioAssay AID540276 (National Center for Advancing Translational Sciences (NCATS), 2011).
# Values joined by “and” are separate entries in the source; they are usually repeats but may differ in a detail not shown here. Equal entries are not always repeated. Hit rate of the full screen: of about 300,000 compounds, about 5,400 (1.8%) were called active. This list was built around the results that the source calls inconclusive (neither active nor inactive); the mix of calls is not that of the screen. The call rests on the fitted dose curve; tested in HEK293 cells. Potencies beside an inconclusive call are fits to weak or partial responses and may not hold up.
# Assay: qHTS for inhibitors of binding or entry into cells for Marburg Virus
# Conditions: Marburg virus pseudotyped entry inhibition, cell reporter; activity change, negative = inhibition: at 37.8 µM (top of the series) unless noted
# On the % scale 0 is the no-effect control and ±100 the full control effect; potency means the concentration at half of the fitted maximal effect.
Compound,Potency,"activity change, negative = inhibition"
Oc1ccc(/C=N/NC(=S)Nc2cccnc2)c(O)c1,"inconclusive: 7.94 µM [inhibitor, partial curve, poor fit]",
O=C(Nc1ccc(Oc2ccccc2)cc1)C1CC1,"inconclusive: 1.78 µM [activator, single point]",
CC(C)C(=O)N1CCN(c2ccccc2NC(=S)NC(=O)Cc2ccccc2)CC1,"inconclusive: 22.4 µM [inhibitor, single point]",
COc1ccc(/C=N/n2c(N)nc(-c3ccccc3)c2-c2ccccc2)cc1,"inconclusive: 14.1 µM [inhibitor, single point]",
COc1ccc(C(c2c(O)c3ccccc3oc2=O)c2c(C)n(C)n(-c3ccccc3)c2=O)cc1 (stereo not drawn),"inconclusive: 3.55 µM [inhibitor, single point] and inconclusive: 12.6 µM [activator, single point]",
CCCCc1cc(=O)oc2cc(O)ccc12,,inactive: -0.755% [at 46.1 µM]
CC(C)(C)N1C(=O)c2ccc(C(=O)Nc3ccc(-c4nc5ccccc5[nH]4)cc3)cc2C1=O,"inconclusive: 4.61 µM [activator, full curve, poor fit]",
CN1CCN(NC(=O)c2cn(-c3ccccc3)nc2-c2cccc(Br)c2)CC1,"inconclusive: 11.2 µM [inhibitor, partial curve, poor fit]",
CCn1cc(C(=O)N2CCN(c3cccc(C(F)(F)F)c3)CC2)c2cc(OC)c(OC)cc2c1=O,"inconclusive: 31.6 µM [inhibitor, single point]",
Cc1ccnc(N2CCN(c3cc(C)c(C#N)c4nc5ccccc5n34)CC2)c1,,inactive: -21.2%
O=C(NC1(C(F)(F)F)C(=O)Nc2c1c(=O)[nH]c(=O)n2CCc1ccccc1)c1ccc(Cl)cc1Cl (stereo not drawn),"inconclusive: 3.16 µM [activator, single point]",
Cc1ccc(C(=O)N/C(=C\c2ccc(F)cc2)C(=O)NCCN2CCOCC2)cc1,"inconclusive: 3.16 µM [activator, single point]",
COc1ccccc1-c1cc2nc(C)c(CCC(=O)Nc3ccc(Br)c(C)c3)c(C)n2n1,"inconclusive: 0.631 µM [inhibitor, full curve, poor fit]",
COc1ccc(C2C(C#N)=C(N)N(c3ncn[nH]3)C3=C2C(=O)CCC3)cc1 (stereo not drawn),"inconclusive: 15.8 µM [inhibitor, single point]",
C=CCn1c(-c2sccc2C)n[nH]c1=S,,inactive: 2.28%
CCc1ccc(N(C2C=CS(=O)(=O)C2)S(=O)(=O)c2ccccc2)cc1 (stereo not drawn),,inactive: -20.9%
COc1ccc(NC(=O)C2CC(=O)N(CCc3ccc(Cl)cc3)C2)cc1 (stereo not drawn),,inactive: -11.7%
COc1ccc(NS(=O)(=O)c2ccc(OCC(=O)N3CCOCC3)cc2)cc1Cl,"inconclusive: 35.5 µM [inhibitor, single point]",
CCn1cc(C(=O)NCCCN(C)C)c(=O)c2cc(F)c(N3CCN(C)CC3)cc21,"inconclusive: 11.2 µM [inhibitor, partial curve, poor fit]",
C=C(C)C1CC=C(C)/C(=N/NC(=O)CNc2ccc(C)cc2C)C1 (stereo not drawn),"inconclusive: 5.62 µM [activator, single point]",
CCC(=O)c1ccc(N2CCN(C(=O)c3ccccc3F)CC2)c(F)c1,"inconclusive: 35.5 µM [activator, single point]",
CCOc1ccc(NC(=O)Nc2ccccc2C(N)=O)cc1,,inactive: 0.724% [at 46.1 µM]
Cc1nc(CNC(=O)C2CCC(=O)N(Cc3cccc(F)c3)C2)sc1C (stereo not drawn),,inactive: 16.1% [at 46.1 µM]

Compound,Potency,"activity change, negative = inhibition"
CC(C)(C)C1=C(C#N)C(c2ccc3c(c2)OCO3)C(C#N)=C(N)O1 (stereo not drawn),,inactive: 4.21%
c1ccc2c(c1)ccc1[nH]c3c(c12)CCCC3,active: 0.501 µM,
Cc1ccc(CNC(=O)c2cc3c(s2)-c2ccccc2SC3)cc1,,inactive: -8.95% [at 46.1 µM]
CCNc1c(NC(=O)C2CCC(C)CC2)c(=O)oc2ccccc12 (stereo not drawn),,inactive: 9.32% [at 46.1 µM]
Oc1ccc(-c2cnns2)c(O)c1,"inconclusive: 29.1 µM [inhibitor, single point]",
CC(C)CN(CCCNC(=O)Cn1ncc2c3ccccc3n(C)c2c1=O)CC(C)C,,inactive: -3.59% [at 46.1 µM]
Cc1cc(C)c(C#N)c(N2CCN(Cc3ccccc3)CC2)n1,,inactive: -8.32%
Cn1c(/N=C/c2ccc3c(c2)OCO3)nc2ccccc21,,inactive: 15.7%
CCOC(=O)N1CCC(n2c(SCC(=O)N3CCC(C)CC3)nc3ccccc3c2=O)CC1,,inactive: -65.5%
N#Cc1cc2c(nc1SCC(=O)Nc1cccc(C(F)(F)F)c1)C1CCN2CC1,,inactive: -8.99% [at 46.1 µM]
O=C(CN1CCN(c2ccc(O)cc2)CC1)Nc1cc([N+](=O)[O-])ccc1Cl,"inconclusive: 20 µM [activator, single point]",
COc1ccc(S(=O)(=O)NC(CC(=O)N2CCc3ccccc32)c2ccco2)cc1 (stereo not drawn),"inconclusive: 12.6 µM [activator, partial curve, poor fit]",
CCN(CC)S(=O)(=O)c1ccc(C)c(NC(=S)N2CCN(c3ccccn3)CC2)c1,"inconclusive: 25.1 µM [inhibitor, single point]",
Cc1cc(-c2nc3ncccc3o2)ccc1NC(=O)CC(C)C,"inconclusive: 29.1 µM [activator, single point]",
Cc1nc(NC(=O)CSc2nc3cccnc3n2Cc2ccccc2)sc1C,"inconclusive: 25.1 µM [inhibitor, single point]",
CCOc1ccc(OCC)c(NS(=O)(=O)c2cc(Br)cc3c2N(C(C)=O)C(C)C3)c1 (stereo not drawn),,inactive: 6.98% [at 46.1 µM]
CS/C(=N\S(=O)(=O)c1cccs1)Nc1ccc(Br)cc1F,"inconclusive: 3.16 µM [activator, single point]",
Cc1cc(N/N=C/c2ccccc2)nc(NCc2ccccc2)n1,"inconclusive: 7.94 µM [inhibitor, partial curve, poor fit]",
O=C(c1ccc(F)cc1)N1c2nc(-c3ccco3)nn2C2(CCCCC2)[C@@H]2CCCC[C@@H]21,,inactive: -6.38% [at 46.1 µM]
O=C1C(c2ccccc2)C(c2ccccc2)NC(c2ccccc2)C1c1ccccc1 (stereo not drawn),"inconclusive: 6.51 µM [inhibitor, partial curve, poor fit]",
O=C(Nc1ccccc1C(=O)O)c1cccc(NC(=O)c2ccc(Br)o2)c1,inactive,
CCC(=O)c1ccc(OCC(O)CN(C)C2CCCCC2)cc1 (stereo not drawn),"inconclusive: 0.631 µM [activator, full curve]",
COc1cc(C2C(C#N)=C(N)Oc3cc(C)oc(=O)c32)cc(OC)c1OC (stereo not drawn),"inconclusive: 5.01 µM [inhibitor, single point]",

Compound,Potency,"activity change, negative = inhibition"
O=C(NCCc1ccccc1)c1cc([N+](=O)[O-])ccc1N1CCOCC1,"inconclusive: 3.55 µM [inhibitor, partial curve, poor fit]",
O=[N+]([O-])c1cc(CN2CCCC2)c2cccnc2c1O,,inactive: -8.56%
COc1ccccc1CNC(=O)CCC1N=C2c3ccccc3N=C(SCc3cccc(Cl)c3)N2C1=O (stereo not drawn),,inactive: -3.2% [at 46.1 µM]
Cc1cccc(NC(=O)c2oc(=O)c3ccccc3c2-c2ccccc2)c1C,"inconclusive: 20 µM [inhibitor, single point]",
CCOC(=O)c1ccc(NC(=O)CSc2nnc(-c3cccs3)n2CC)cc1,,inactive: -5.31%
COc1cc(/C=N/NC(=O)c2cc(C34CC5CC(CC(C5)C3)C4)[nH]n2)ccc1O,,inactive: -20.5%
CCOc1ccccc1-n1cnc2cc(C(=O)NCc3ccco3)ccc21,"inconclusive: 20 µM [inhibitor, single point]",
CC(C)N(C(=O)CSc1nc2ccc(Cl)cc2[nH]1)c1ccccc1,"inconclusive: 35.5 µM [inhibitor, single point]",
CCOc1ccc2[nH]c(=O)c(CN(Cc3ccco3)C(CC)c3nnnn3Cc3ccccc3)cc2c1 (stereo not drawn),"inconclusive: 11.2 µM [inhibitor, partial curve, poor fit]",
O=C(Nc1c(F)c(F)c(F)c(F)c1F)C1CCCCC1,"inconclusive: 0.794 µM [inhibitor, single point]",
O=C(NCCN1CCOCC1)C(Sc1ccccc1)c1ccccc1 (stereo not drawn),"inconclusive: 6.31 µM [inhibitor, single point]",
O=C(NNC(=O)c1cc2ccccc2o1)c1ccc(Cl)cc1,"inconclusive: 5.62 µM [inhibitor, partial curve, poor fit]",
O=C(N/N=C/c1ccc(O)cc1)c1cncc(Br)c1,,inactive: 38.7%
COc1ccc(C(c2nnnn2C2CCCCC2)N2CCN(c3ccccc3F)CC2)cc1 (stereo not drawn),"inconclusive: 35.5 µM [inhibitor, single point]",
COc1ccc(NC(=O)c2cc(C)nc3ccccc23)cc1S(=O)(=O)Nc1ccccc1Cl,"inconclusive: 3.16 µM [inhibitor, full curve]",
CC(=O)Nc1cc(C(=O)NCc2ccco2)ccc1Sc1ccc(F)cc1,"inconclusive: 0.1 µM [inhibitor, full curve, poor fit]",
CCCCc1ccc(NC(=O)CSc2nc(=O)n(CCN(CC)CC)c3c2CCCC3)cc1,"inconclusive: 35.5 µM [inhibitor, single point]",
Cc1cc(S(=O)(=O)N2CCCCC2)ccc1OCC(=O)N1CCOCC1,"inconclusive: 15.8 µM [activator, single point]",
CCOC(=O)Cc1nc(-c2cccc(C(F)(F)F)c2)no1,"inconclusive: 10 µM [inhibitor, partial curve, poor fit]",
COC(=O)C(=C/C(C)=C/c1cccs1)C(=O)OC,"inconclusive: 11.2 µM [inhibitor, partial curve, poor fit]",
COC(=O)c1cnc(Oc2ccc(NC(=O)NC(=O)c3ccccc3Cl)cc2)cc1C(F)(F)F,"inconclusive: 0.794 µM [inhibitor, full curve]",
CCN(CC)CCNC(=O)C(Cl)=C1C(Cl)=C(Cl)C(Cl)=C1Cl,"inconclusive: 10 µM [inhibitor, partial curve, poor fit]",

# An excerpt from above in order of length of the SMILES, smallest number first.
Compound,Potency,"activity change, negative = inhibition"
O=[N+]([O-])c1cc(CN2CCCC2)c2cccnc2c1O,,inactive: -8.56%
Cc1cccc(NC(=O)c2oc(=O)c3ccccc3c2-c2ccccc2)c1C,"inconclusive: 20 µM [inhibitor, single point]",
CCCCc1ccc(NC(=O)CSc2nc(=O)n(CCN(CC)CC)c3c2CCCC3)cc1,"inconclusive: 35.5 µM [inhibitor, single point]",
COc1ccccc1CNC(=O)CCC1N=C2c3ccccc3N=C(SCc3cccc(Cl)c3)N2C1=O (stereo not drawn),,inactive: -3.2% [at 46.1 µM]
